# Assays:
# [1] = test system: SARS-CoV-2 spike protein pseudovirus; assay type: cell-based; conditions: 10 µM; read-out: % infectivity (Table S3, kite-shaped molecules in order of inhibition)
# 293T-ACE2 cells = conditions: 10 µM
smiles,measurement,setting,value
CN1c2ccccc2C(NCCCCCCC(=O)[O-])c2ccc(Cl)cc2S1(=O)=O.[Na+] (centres unmarked) [Tianeptine sodium],activity,[1],94.8%
same,% viability (Table S3),293T-ACE2 cells,102
